The record followed here is doi:10.1101/383430 (bioRxiv, 2018).

Results are given in words; binding and its absence hold for the method and conditions named. Binding can be weak; no strength is given. Sequences can lack the tags named with a protein. For part of these data: In cells and extracts the contact can be indirect.

For experiment [1], the target named is T1, FAP45 (flagellar-associated protein 45) (Chlamydomonas (endogenous in axonemes)) (UniProt A8I9E8).
T1 sequence: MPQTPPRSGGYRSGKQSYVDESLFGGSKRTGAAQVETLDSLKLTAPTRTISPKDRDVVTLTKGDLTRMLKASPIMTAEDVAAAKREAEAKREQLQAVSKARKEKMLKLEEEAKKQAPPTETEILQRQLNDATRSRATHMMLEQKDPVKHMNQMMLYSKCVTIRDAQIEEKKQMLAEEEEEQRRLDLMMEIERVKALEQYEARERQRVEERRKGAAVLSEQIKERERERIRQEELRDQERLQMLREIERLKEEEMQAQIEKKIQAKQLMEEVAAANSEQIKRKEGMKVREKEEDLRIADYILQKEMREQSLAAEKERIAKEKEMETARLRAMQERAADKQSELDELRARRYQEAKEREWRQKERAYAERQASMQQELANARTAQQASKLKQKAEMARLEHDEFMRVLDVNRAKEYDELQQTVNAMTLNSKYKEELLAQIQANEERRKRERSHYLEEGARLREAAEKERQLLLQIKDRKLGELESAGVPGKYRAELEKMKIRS
As to the kind of experiment: cryo-electron tomography with subtomogram averaging.

The target in experiment [2] is T1, FAP45 (flagellar-associated protein 45) (Chlamydomonas (endogenous in axonemes)). As to the kind of experiment: cross-linking.
Experiment [3] concerns the target tubulin (Chlamydomonas (endogenous in axonemes)). As to the kind of experiment: cryo-electron tomography with subtomogram averaging.

As for “tubulin (Chlamydomonas (endogenous in axonemes)) (complex)”, the binding result in experiment [1] and in experiment [2] was “binds” in each case.

B1: FAP52 (flagellar-associated protein 52) (natural protein, Chlamydomonas (endogenous in axonemes), UniProt A8ILK1 1-615, looked up)
chain: MAEPLVLNSVIGFGGAIENGLIAHPDGRTIIYPLGSTIVLRDRADPRSQEFLQGHSDKVSCLALSRSGRYLASGQITYMGFTADIIIWDLESKQLIHRMALHKVKVQALDFSCDERFLASLGGQDDNALVLWDVASGNAICGSPCNTNFTNCVKFFNNSPDKLITAGNFNMNVWTYDAGNNKLRPTDATLGTLKRVFKSVVVDANDEYAYCGTTTGDVLQIALERVLFKNTGPAKGNVQMGVTATCEVPTGDILVGGGDGSLQLLRKMPALAGTKVEGAITSIALADMNARGFTFFVGTAMCNIYKPATSRLKEELVQTAHNDKINGMAFPNEYSEVFATCGTGFIRLWHLTTCRELLRIAVPNLECFCIAFTTDGSAILSGWSDGKIRAFGPQSGKIIFTINDAHQKAVTAIASTADSSRILSGGEEGMVRVWRIGRTSQTLEASMKDHKGPVNCIRIKGSGDECVSASSDGSCILWDLHTFKRRTSLFANTFFKSVVYHPDESQLVTAGTDRKVTYWDAYDGNAIRIIDGSDLDEVNALAVDRDGEALVSGGGDKLVKLWGYDEGHCYFVGVAHSGAITAVGVTPDKQRIVSVGTEGGIFIWDYQRPQTLADI
As for B1, in experiment [3], the binding entry is given as “binds”.
